Reference: PubChem BioAssay AID686943 (Drosophila RNAi Screening Center, 2013)
Aim: 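Fly genes whose loss alters ERK activation after insulin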 (primary screen). Cells: Drosophila S2R+ haemocyte-like cells expressing YFP-tagged ERK (Rolled). Reagents: long dsRNA against Drosophila genes. Challenge: insulin stimulation versus unstimulated cells; dose and duration not given. Detection: 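Antibody staining for doubly phosphorylated ERK divided by ERK-YFP signal, as plate z-scores, in insulin-treated and untreated cells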. Direction: replicate 1, z-score of dpERK with insulin: higher = more active ERK per ERK-YFP after insulin.
The deposit covers about 23,000 reagents; shown is an unselected part of those with a known target gene and a result. 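Extra replicates exist only for a retested subset of genes; insulin dose and duration not given; both raised and lowered dpERK matter.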 Names joined by + are all predicted targets of the reagent. Further read-outs or replicates are left out here. Not given: the amount of reagent, the time to read-out.

RpS5a [DRSC20282]
- replicate 1, z-score of dpERK with insulin: -0.5

CG13996 [DRSC02328]
- replicate 1, z-score of dpERK with insulin: -0.05

CG1172 + Or83a [DRSC12357]
- replicate 1, z-score of dpERK with insulin: -0.17

CG5850 [DRSC02905]
- replicate 1, z-score of dpERK with insulin: 0.26

Pnn [DRSC16415]
- replicate 1, z-score of dpERK with insulin: 1.21

CG31549 [DRSC21688]
- replicate 1, z-score of dpERK with insulin: 1.35

CkIIbeta [DRSC20230]
- replicate 1, z-score of dpERK with insulin: -0.01

CG14829 [DRSC10199]
- replicate 1, z-score of dpERK with insulin: 0.86

CG42327 [DRSC14936]
- replicate 1, z-score of dpERK with insulin: -2.18

CG42327 [DRSC14937]
- replicate 1, z-score of dpERK with insulin: 0.76

CG14853 [DRSC14977]
- replicate 1, z-score of dpERK with insulin: 1.16

CG14853 [DRSC21528]
- replicate 1, z-score of dpERK with insulin: 0.18

bnl [DRSC13377]
- replicate 1, z-score of dpERK with insulin: -0.39

bnl [DRSC16913]
- replicate 1, z-score of dpERK with insulin: -1.77

A portion taken from the entries so far, for reference:
CG5850 [DRSC02905]
- replicate 1, z-score of dpERK with insulin: 0.26

Pnn [DRSC16415]
- replicate 1, z-score of dpERK with insulin: 1.21

CG31549 [DRSC21688]
- replicate 1, z-score of dpERK with insulin: 1.35

The results go on:
CG1273 [DRSC08291]
- replicate 1, z-score of dpERK with insulin: -0.2

Nepl16 [DRSC14650]
- replicate 1, z-score of dpERK with insulin: 0.06

CG7556 [DRSC20052]
- replicate 1, z-score of dpERK with insulin: 4.95

Desat1 [DRSC16668]
- replicate 1, z-score of dpERK with insulin: -1.84

Tango9 [DRSC14173]
- replicate 1, z-score of dpERK with insulin: -0.15

CG15196 [DRSC19643]
- replicate 1, z-score of dpERK with insulin: -0.08

Ote [DRSC07498]
- replicate 1, z-score of dpERK with insulin: 0.16
